Data source: PubChem BioAssay AID1259254 (NCATS, 2017)
Here is one part, drawn at random, of about 59,000 deposited reagents. Of all reagents, about 1,550 (2.6%) were called active. 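G2 share is only a proxy for re-replication; each gene was hit by three separate siRNAs, and active genes were retested.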 The raw values are shown without normalisation. The numbers tell different reagents against one gene apart. Reagent sequences are not shown. The record does not give: the amount of reagent.

Screen: 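Gene knock-downs that lead to re-replication, shown by excess G2 DNA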 (primary screen)
System: human HCT116 colorectal cancer cells
Knock-down reagent: single siRNA against human genes
Time to read-out: 3 days
Measurement: 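Nuclei stained with Hoechst and imaged; cell-cycle phase assigned by DNA content; G2 share scaled per plate, non-targeting siRNA 0%, GMNN siRNA 100%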
Scale: G2 robust z-score and G2 cells, % of GMNN control: higher = more G2 cells, more excess DNA replication; raw share of cells in G2: higher = larger share of cells with G2 DNA content
Rule for the call: 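Active siRNAs have a G2 robust z of 5 or more median absolute deviations over the median, which in these data means about 38% or higher of GMNN control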

| G2 robust z-score | G2 cells, % of GMNN control | raw share of cells in G2 (%) | outcome | Target gene | reagent no. |
| --- | --- | --- | --- | --- | --- |
| 4.39 | 33.9 | 20.6 | inactive | ENTREP1 (GeneID 9413) | 1 |
| 0.43 | 6 | 6.45 | inactive | ENTREP1 (GeneID 9413) | 2 |
| 1.73 | 15.1 | 8.91 | inactive | ENTREP1 (GeneID 9413) | 3 |
| -0.225 | 1.39 | 4.29 | inactive | SRARP (GeneID 149563) | 1 |
| 0.586 | 7.09 | 5.1 | inactive | SRARP (GeneID 149563) | 2 |
| 0.215 | 4.48 | 4.63 | inactive | SRARP (GeneID 149563) | 3 |
| -0.742 | -2.25 | 1.72 | inactive | TM2D1 (GeneID 83941) | 1 |
| -0.835 | -2.91 | 3.14 | inactive | TM2D1 (GeneID 83941) | 2 |
| 0.448 | 6.12 | 5.27 | inactive | TM2D1 (GeneID 83941) | 3 |
| 3.17 | 25.2 | 16.7 | inactive | SF3A3 (GeneID 10946) | 1 |
| 1.64 | 14.5 | 8.53 | inactive | SF3A3 (GeneID 10946) | 2 |
| 4.76 | 36.4 | 20.8 | inactive | SF3A3 (GeneID 10946) | 3 |
| 3.83 | 29.9 | 19.6 | inactive | IMP3 (GeneID 55272) | 1 |
| -0.365 | 0.402 | 4.58 | inactive | IMP3 (GeneID 55272) | 2 |
| 0.742 | 8.19 | 7.75 | inactive | IMP3 (GeneID 55272) | 3 |
| 0.327 | 5.27 | 7.82 | inactive | TTPA (GeneID 7274) | 1 |
| 2.49 | 20.5 | 11.2 | inactive | TTPA (GeneID 7274) | 2 |
| 0.309 | 5.14 | 6.18 | inactive | TTPA (GeneID 7274) | 3 |
| -0.0439 | 2.66 | 6.85 | inactive | LRRN2 (GeneID 10446) | 1 |
| 2.53 | 20.8 | 10.6 | inactive | LRRN2 (GeneID 10446) | 2 |
| -1.07 | -4.59 | 4.67 | inactive | LRRN2 (GeneID 10446) | 3 |
| 1.2 | 11.4 | 7.25 | inactive | ANO6 (GeneID 196527) | 1 |
| 1.19 | 11.3 | 7.62 | inactive | ANO6 (GeneID 196527) | 2 |
| 8.34 | 61.6 | 27.6 | active | ANO6 (GeneID 196527) | 3 |
| -0.402 | 0.137 | 5.01 | inactive | CYP4A11 (GeneID 1579) | 1 |
| -0.287 | 0.95 | 4.42 | inactive | CYP4A11 (GeneID 1579) | 2 |
| 0.587 | 7.1 | 7.59 | inactive | CYP4A11 (GeneID 1579) | 3 |
| 0.981 | 9.87 | 7.38 | inactive | LINC01020 (GeneID 340094) | 1 |
| -0.587 | -1.16 | 2.75 | inactive | LINC01020 (GeneID 340094) | 2 |
| 0.292 | 5.02 | 6.21 | inactive | LINC01020 (GeneID 340094) | 3 |
| -0.883 | -3.25 | 4.41 | inactive | SEMA3D (GeneID 223117) | 1 |
| -0.247 | 1.23 | 5.15 | inactive | SEMA3D (GeneID 223117) | 2 |
| -0.512 | -0.638 | 4.43 | inactive | SEMA3D (GeneID 223117) | 3 |
| 0.0116 | 3.05 | 5.91 | inactive | NDRG4 (GeneID 65009) | 1 |
| -0.896 | -3.34 | 3.11 | inactive | NDRG4 (GeneID 65009) | 2 |
| 5.51 | 41.7 | 13.7 | active | NDRG4 (GeneID 65009) | 3 |
| 2.37 | 19.6 | 10.7 | inactive | TAS2R42 (GeneID 353164) | 1 |
| 0.38 | 5.64 | 5.73 | inactive | TAS2R42 (GeneID 353164) | 2 |
| -0.139 | 1.99 | 4.99 | inactive | TAS2R42 (GeneID 353164) | 3 |
| -0.0826 | 2.39 | 3.96 | inactive | SAXO4 (GeneID 220004) | 1 |
| -0.344 | 0.546 | 3.78 | inactive | SAXO4 (GeneID 220004) | 2 |
| 1.04 | 10.3 | 6.66 | inactive | SAXO4 (GeneID 220004) | 3 |
| -0.218 | 1.43 | 3.58 | inactive | RPSAP22 (GeneID 100270874) | 1 |
| 1.05 | 10.4 | 8.2 | inactive | RPSAP22 (GeneID 100270874) | 2 |
| 0.0525 | 3.34 | 4.48 | inactive | RPSAP22 (GeneID 100270874) | 3 |
| 1.82 | 15.8 | 13.1 | inactive | DIRAS2 (GeneID 54769) | 1 |
| -1.16 | -5.2 | 2.32 | inactive | DIRAS2 (GeneID 54769) | 2 |
| -1.02 | -4.19 | 2.19 | inactive | DIRAS2 (GeneID 54769) | 3 |
